# Source: PubChem BioAssay AID1159578 (Peter MacCallum Cancer Centre, 2015)
# Purpose: 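Knock-downs that alter how fast lymphatic endothelial cells migrate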 (primary screen)
# System: human lymphatic endothelial cells
# Knock-down reagent: siRNA pool against human genes, 40 nM
# Timing: 48 h after transfection
# Measured: 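High-content imaging of dye-stained cells in a scratch assay measures filled wound area and nuclei per well; duplicate means given as ratio to mock and robust z-score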
# Reading the numbers: migration robust z-score: higher = faster migration into the scratch; migration relative to mock: higher = more scratch area covered than mock; nuclei per well: higher = more cells in the well
# Call rule: 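Pools averaging fewer than 3300 nuclei are never called; remaining pools count as changed when migration robust z lies outside -2 to 2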
# Meaning of the calls: active = migration changed; inactive = no migration change, or too few cells
# Here is an unselected part of about 18,000 deposited reagents. In the full data, about 1,030 (5.7%) were called active. 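Inactive calls also include pools with fewer than 3300 nuclei, whose migration was not assessed.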 The raw values are shown without normalisation. Entries without a mark were called inactive.
Target gene,migration robust z-score,migration class with cell-count check,migration relative to mock,"nuclei per well, duplicate mean"
MT1E,1.04,migration z between -2 and 2; enough cells,1.15,6176
CHERP,-0.04,migration z between -2 and 2; enough cells,0.88,5799
PITHD1,-0.94,migration z between -2 and 2; enough cells,0.64,6201
SPATS1,-4.12 (active),migration z below -2; enough cells,-0.18,4108
AMACR,1.29,migration z between -2 and 2; enough cells,1.05,5532
SLC9A7,0.96,migration z between -2 and 2; enough cells,1.14,6376
DNAJC30,-1.21,migration z between -2 and 2; enough cells,0.57,5758
PPM1A,-1.06,migration z between -2 and 2; enough cells,0.6,4942
LONP2,-1.3,migration z between -2 and 2; enough cells,0.55,4882
KRT20,-0.67,migration z between -2 and 2; enough cells,0.72,6358
TEX2,-0.26,migration z between -2 and 2; enough cells,0.82,6258
CD5,0.99,migration z between -2 and 2; enough cells,1,6362
ANKRD10,-0.3,migration z between -2 and 2; enough cells,0.81,5634
HELQ,1.66,migration z between -2 and 2; enough cells,1.12,6510
DCT,1.42,migration z between -2 and 2; enough cells,1.08,6526
PTH1R,-0.24,migration z between -2 and 2; enough cells,0.76,4878
CDH15,-0.62,migration z between -2 and 2; enough cells,0.72,5221
RIMOC1,-1.23,migration z between -2 and 2; enough cells,0.56,4774
PTGER1,0.05,migration z between -2 and 2; enough cells,0.82,6128
PRKG2,-3.27 (active),migration z below -2; enough cells,0.18,4404
LOXL1,0.91,migration z between -2 and 2; enough cells,0.98,4644
H3C10,1.11,migration z between -2 and 2; enough cells,1.17,6476
KIAA1958,1.85,migration z between -2 and 2; enough cells,1.36,5242
METTL5,0.24,migration z between -2 and 2; enough cells,0.85,5890
KLHL36,1.41,migration z between -2 and 2; enough cells,1.25,5648
MSMP,0.22,migration z between -2 and 2; enough cells,0.94,5133
GCKR,-0.78,migration z between -2 and 2; enough cells,0.66,5915
AGBL5,-1.54,migration z between -2 and 2; enough cells,0.49,4482
SNORC,-0.3,migration z between -2 and 2; enough cells,0.8,5154
RFX4,-0.08,migration z between -2 and 2; enough cells,0.86,5042
DHRS7B,-0.18,migration z between -2 and 2; enough cells,0.84,4080
RSRC1,-0.6,under 3300 nuclei; migration not judged,0.72,2830
ERO1B,1.41,migration z between -2 and 2; enough cells,1.25,6434
SLC25A30,1,migration z between -2 and 2; enough cells,1.14,5302
HOGA1,2.19 (active),migration z above 2; enough cells,1.46,7877
MAB21L4,0.16,migration z between -2 and 2; enough cells,0.92,6800
PDCD6,-1.19,migration z between -2 and 2; enough cells,0.58,7208
C15orf32,0.57,migration z between -2 and 2; enough cells,1.04,5225
GAPT,0.02,migration z between -2 and 2; enough cells,0.89,5266
NFXL1,1.32,migration z between -2 and 2; enough cells,1.23,5920
SNX2,-1.02,migration z between -2 and 2; enough cells,0.62,6982
SOBP,-1.62,migration z between -2 and 2; enough cells,0.46,5148
VAV2,0.44,migration z between -2 and 2; enough cells,0.89,6270
SESN2,1.19,migration z between -2 and 2; enough cells,1.2,7175
ANK3,0.8,migration z between -2 and 2; enough cells,0.96,5821
DORIP1,0.1,migration z between -2 and 2; enough cells,0.92,5796
HSDL2,-0.39,migration z between -2 and 2; enough cells,0.78,6025
CBX5,-0.35,migration z between -2 and 2; enough cells,0.79,6030
MAPKAP1,0.52,migration z between -2 and 2; enough cells,0.9,5645
TBC1D10B,-0.3,migration z between -2 and 2; enough cells,0.8,5392
RHOXF2,0.57,migration z between -2 and 2; enough cells,1.04,4968
CTSH,-0.52,migration z between -2 and 2; enough cells,0.7,5885
HMG20A,1.25,migration z between -2 and 2; enough cells,1.04,5154
ZFYVE1,-1.38,migration z between -2 and 2; enough cells,0.53,5062
GRK7,-1.64,migration z between -2 and 2; enough cells,0.49,3875
OR10G8,-0.9,migration z between -2 and 2; enough cells,0.66,5692
PXMP2,0.72,migration z between -2 and 2; enough cells,1.07,5945

Limited to “nuclei per well, duplicate mean” (5 entries from above):
ANK3: 5821
DORIP1: 5796
HSDL2: 6025
CBX5: 6030
MAPKAP1: 5645
